These results are taken from PubChem BioAssay AID1487 (National Center for Advancing Translational Sciences (NCATS), 2009).

This assay is described as follows: qHTS Assay for Modulators of Lamin A Splicing. The settings on record: HeLa LMNA splicing GFP/RFP minigene ratio, 48 h. In a few lines: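 S3 HeLa cells stably expressing lamin A-EGFP splicing minigene plus DsRed2, 600 cells/well, 48 h compound exposure at 37C. Laser-scanning cytometry; analysed as GFP (500-530 nm)/RFP (575-640 nm) total intensity ratio; 0.5% DMSO vehicle.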

[1] abbreviates: measured here: GFP splicing reporter channel.
Setting [2] is: measured here: RFP viability control channel.

Molecules are shown by their SMILES. This is one part of the list. These are further read-outs of the screen, such as a control signal, another cell line or another target. No call is given for them. Compounds called inactive in the main read-out are mostly missing here. The note in brackets gives the kind of curve behind each potency; many fits are weak.

For `Cc1ccc(CSc2nc3sc(C)c(C)c3c(=O)n2Cc2ccco2)cc1`, the AC50 under setting [1] is 14.1 µM [falling, single point] and the AC50 under setting [2] was 22.4 µM [falling, single point]. Turning to `COc1ccc(-n2c(SCCC#N)nnc2-c2cc(Cl)ccc2OC)cc1Cl`, under setting [1], the AC50 is 35.5 µM [rising, single point]. Same read-out and setting: as for `COc1cccc(OC)c1C(=O)NNC(=O)c1ccc(F)cc1`, the figure is 0.02 µM [rising, full curve, poor fit].

For the compound `CCc1ccccc1NC(=O)C1CCN(C2=NS(=O)(=O)C(c3ccc(C)c(C)c3)=C2C)CC1`, the AC50 is, setting by setting: under setting [1], 0.112 µM [falling, partial curve]; under setting [2], 0.0501 µM [falling, full curve, poor fit]. Take `O=C(c1ccco1)N1CCN(C(=O)N2c3ccccc3Sc3ccccc32)CC1`: the AC50 under setting [2] was 0.0891 µM [rising, full curve, poor fit].

In the case of `Oc1oc(-c2ccccc2)nc1/C=N/c1nccs1`, the AC50 under setting [2] was 0.398 µM [rising, full curve, poor fit]. On to `Cc1noc(/C=C/Nc2ccc(F)cc2F)c1[N+](=O)[O-]`, for which the AC50 runs as follows: under setting [1], 0.708 µM [rising, partial curve, poor fit]; under setting [2], 1.41 µM [rising, partial curve, poor fit].

On to `Cc1ccc(-n2c(O)c(/C=N/Nc3ccc(S(=O)(=O)N4CCOCC4)cc3[N+](=O)[O-])c3ccccc3c2=O)c(C)c1`, for which the AC50 under setting [2] was 17.8 µM [rising, partial curve]. Same read-out and setting: as for `O=C(Cn1cc([N+](=O)[O-])cn1)NCc1ccco1`, the figure is 0.00316 µM [falling, full curve, poor fit].

Turning to `CCCc1ccc(OCC(O)CN2CCN(c3ccccc3)CC2)cc1` (stereo unspecified), under setting [1], the AC50 is 17.8 µM [rising, single point]. `C[N+]1(C2CCC3CCCC2C3O)CCCCC1` (stereo unspecified): under setting [1], the AC50 was 0.708 µM [rising, full curve]. With `O=C(O)CCCC(=O)Nc1nc(-c2ccc(F)cc2)cs1`, under setting [2], the AC50 is 31.6 µM [rising, single point].

Consider `O=C(NCc1ccc2c(c1)OCO2)c1ccc(Cl)s1`, for which, under setting [2], the AC50 is 3.98 µM [rising, partial curve, poor fit]. Take `CCCCn1c(-c2ccc(C)cc2)c(C)n2c3c(=O)n(C)c(=O)n(C)c3nc12`: the AC50 under setting [2] was 0.794 µM [rising, full curve, poor fit]. With `O=S(=O)(NC1CCCC1)c1ccc(S(=O)(=O)N2CCc3ccccc32)cc1`, the AC50 by setting is: under setting [1], 20 µM [rising, single point]; under setting [2], 20 µM [rising, single point].

Regarding `O=C1/C(=C/c2cccs2)N=C(c2cccs2)N1Nc1ccccc1`, the AC50 under setting [2] is 14.1 µM [rising, single point]. Same read-out and setting: next, `CCOC(=O)c1cc(-c2ccc(OC(F)F)cc2)nc2nc(SC)[nH]c(=O)c12`: 0.501 µM [rising, full curve, poor fit].

Turning to `CCCC(=O)O[C@@H]1C[C@@H](C)N(C(=O)c2ccccc2)c2ccc(C)cc21`, under setting [1], the AC50 is 12.6 µM [rising, single point].

Regarding `Nc1c(C(=O)NCCC2=CCCCC2)sc2ccc(S(=O)(=O)N3CCCCC3)cc12`, the AC50 under setting [1] was 35.5 µM [rising, single point] and the AC50 under setting [2] was 35.5 µM [rising, single point]. In the case of `CCOc1ccc(N(CC)C(=O)CSc2n[nH]c(-c3ccccc3)n2)cc1`, the AC50 under setting [1] is 6.31 µM [rising, partial curve].

In the case of `Cc1ccc(NC(NC(=O)c2ccccc2[N+](=O)[O-])C(Cl)(Cl)Cl)cc1` (stereo unspecified), the AC50 under setting [2] was 20 µM [rising, partial curve, poor fit]. For the compound `Cc1cc(C(=O)N/N=C/C=C/c2ccccc2[N+](=O)[O-])c(C)o1`, under setting [1], the AC50 was 5.01 µM [rising, single point]. As to `COc1cccc(CN(C)C(=O)c2cc(COc3c(F)cccc3F)on2)c1`, the AC50 under setting [2] is 1.12 µM [falling, partial curve, poor fit]. Consider `COc1ccc(-c2cc(=O)n(-c3ccc([N+](=O)[O-])cc3)[nH]2)cc1`, for which the AC50 was 35.5 µM [falling, single point] under setting [1] and 22.4 µM [rising, single point] under setting [2]. In the case of `O=C(NC1CCCC1)c1ccc2c(c1)N(Cc1ccccc1F)C(=O)c1ccccc1S2`, the AC50 is, setting by setting: under setting [1], 1.41 µM [falling, full curve, poor fit]; under setting [2], 0.447 µM [falling, full curve]. With `Clc1cccc(-c2nnc(SCc3nc4ccccc4[nH]3)n2Cc2ccco2)c1`, the AC50 under setting [2] was 7.94 µM [rising, partial curve].

As to `Cc1cc(C)cc(N(CC(=O)Nc2cccc(C)n2)S(=O)(=O)c2c(C)noc2C)c1`, the AC50 under setting [2] was 35.5 µM [rising, single point]. As for `COc1ccc(N(CC(=O)Nc2cccc(C(F)(F)F)c2)S(C)(=O)=O)cc1`, the AC50 under setting [2] is 12.6 µM [rising, single point]. In the case of `Cc1cccc(NC(=S)N(CCN2CCOCC2)Cc2cc3cc4c(cc3[nH]c2=O)OCO4)c1`, the AC50 under setting [2] is 5.01 µM [falling, full curve]. Still for that read-out and setting: next, `CCCCOc1ccc(-c2nonc2NC(=O)c2ccco2)cc1`: 0.0126 µM [falling, full curve, poor fit]. Turning to `Cc1ccc(OCC(=O)NCC2(N3CCN(C)CC3)CCCCC2)cc1C`, the AC50 was 3.55 µM [falling, single point] under setting [1] and 6.31 µM [falling, single point] under setting [2]. As to `O=C(CSc1cn(CCNC(=O)c2cccs2)c2ccccc12)NCc1ccccc1`, the AC50 under setting [2] is 11.2 µM [rising, partial curve, poor fit]. Regarding `Cc1csc(NC(=O)CSc2nsc(SCC(=O)Nc3nc(C)cs3)c2C#N)n1`, under setting [2], the AC50 is 20 µM [rising, partial curve, poor fit]. Consider `Cc1ccccc1Cn1c(C)cc(C)c(C#N)c1=O`, for which the AC50 under setting [2] is 0.1 µM [rising, full curve, poor fit]. `COc1ccc(OC)c(/C=N/NC(=O)Cc2nc3ccccc3[nH]2)c1`: the AC50 under setting [2] is 20 µM [rising, single point].

Consider `COc1ccc(CCNC(=O)C(=O)NCC2OCCN2S(=O)(=O)c2ccc(Br)cc2)cc1OC` (stereo unspecified), for which the AC50 under setting [1] is 3.98 µM [rising, full curve, poor fit] and the AC50 under setting [2] was 3.98 µM [rising, full curve].

Regarding `CC(=O)c1cccc(OCC(=O)c2cc(C)n(-c3cc(C)on3)c2C)c1`, the concentration at half-maximal activity (AC50) runs as follows: under setting [1], 17.8 µM [rising, single point]; under setting [2], 15.8 µM [rising, partial curve].

Turning to `O=C(COC(=O)c1ccccc1-c1ccccc1[N+](=O)[O-])c1ccccc1`, the AC50 under setting [2] was 22.4 µM [rising, partial curve, poor fit]. As for `Cc1cc(=O)[nH]c(SCCCOc2ccc3c(c2)CCC3)n1`, under setting [2], the AC50 is 12.6 µM [rising, single point].

For the compound `CCOC(=O)N1CCC(NC(=O)C2CCCN(Cc3nc(-c4cccc(Cl)c4)oc3C)C2)CC1` (stereo unspecified), the AC50 under setting [2] is 35.5 µM [rising, single point]. Consider `Cc1cccc(N2CCN(C(=O)c3cc(S(=O)(=O)N(C)C)ccc3N3CCCC3)CC2)c1C`, for which the AC50 under setting [1] was 11.2 µM [falling, single point]. Regarding `CC(C)c1cccc(OCCCCN(C)C)c1`, the AC50 under setting [2] is 0.0282 µM [falling, full curve, poor fit]. `COc1cccc(-c2nc(NCc3ccco3)c3ccccc3n2)c1O`: the AC50 under setting [2] was 11.2 µM [rising, partial curve].

On to `Cc1ccc(-n2nnnc2SCC#N)cc1`, for which, under setting [1], the AC50 is 1.41 µM [falling, full curve, poor fit].

For the compound `Cc1ccc(S(=O)(=O)NC(C(=O)Oc2ccc3c(C(F)(F)F)cc(=O)oc3c2)c2ccccc2)cc1` (stereo unspecified), under setting [2], the half-maximal activity concentration (AC50) is 25.1 µM [rising, single point]. On to `COc1ccc(C(=O)Nc2ccc(SC(F)F)cc2)cc1`, for which the AC50 under setting [2] was 2.82 µM [rising, full curve, poor fit]. For `CC(=O)c1ccc(N2CCN(C(=O)C3CCCN(S(=O)(=O)c4cnc[nH]4)C3)CC2)cc1` (stereo unspecified), the AC50 under setting [1] is 3.55 µM [falling, single point] and the AC50 under setting [2] was 2.82 µM [falling, partial curve].

Consider `O=C(Cc1ccc(Cl)cc1)N/N=C/c1cccs1`, for which the AC50 under setting [1] was 0.158 µM [rising, full curve, poor fit]. `CN1CCN(C(=O)C(=O)Nc2c3c(nn2-c2ccc(F)cc2)CSC3)CC1`: the AC50 by setting is: under setting [1], 0.02 µM [rising, full curve, poor fit]; under setting [2], 0.0355 µM [rising, full curve, poor fit]. `CCn1c(=O)cc(SCC(=O)Nc2ccc3c(c2)OCO3)c2ccccc21`: under setting [2], the AC50 is 39.8 µM [rising, partial curve, poor fit]. As for `COc1cc(/C=C/C(=O)c2ccc(Cl)s2)cc(OC)c1O`, the AC50 under setting [1] was 22.4 µM [falling, single point] and the AC50 under setting [2] was 35.5 µM [falling, single point]. With `COC(=O)c1ccc(NC(=O)c2c(NCc3ccc(C)o3)sc3c2CCCC3)cc1`, the AC50 under setting [2] is 15.8 µM [rising, single point].

As for `Cc1nn(-c2ccccc2)c(C)c1/C=N/NC(=O)c1cc(-c2cccs2)[nH]n1`, the AC50 under setting [2] was 0.398 µM [rising, full curve].

With `CCOC(=O)N/N=C/c1ccc(OCCSc2ccc(Cl)cc2)c(OC)c1`, the AC50 under setting [2] is 10 µM [rising, partial curve].

For `CC(C)COP(=O)(OCC(C)C)C(Nc1ccccc1)c1ccc(F)cc1` (stereo unspecified), the AC50 by setting is: under setting [1], 3.55 µM [rising, full curve, poor fit]; under setting [2], 0.1 µM [rising, full curve, poor fit]. Turning to `COc1ccc(C2N(c3ccc(C)cc3)CCN2c2ccc(C)cc2)cc1O`, the AC50 by setting is: under setting [1], 35.5 µM [falling, single point]; under setting [2], 28.2 µM [falling, partial curve].
